For at least one compound, name, drawing or mass did not settle the structure.
How the values were obtained:
[1] = tested on: PR1, PR10 and OsDRF1 genes; test: Induction of PR1, PR10 and OsDRF1 genes after DEX treatment of transformed rice, oligoarray and Northern; assay type: in vivo, rice (Nipponbare); settings: transformants only introduced with pTA7001 (#9) and non-transformed plants
Protocol: FIG. 12 depicts photographs representing the occurrence of expression induction of PR1, PR10 and OsDRF1 genes on induction of CIGR2 gene expression by DEX using a DEX-inducing type promoter. Transformed rice plants #7 and #9 were spray-treated with DEX or ethanol (EtOH; 0.1% v/v). The amounts of mRNA for each gene were measured using northern blot hybridization after zero, 24, 48 and 72 hours.
Using Agrobacterium methods, the plasmid was introduced into rice (Nipponbare). The derived transformed rice was inbred, and second generation seeds were obtained. Each independent line was spray-treated with dexamethasone (DEX; 30 μM, ethanol solution). Over a time course, total RNAs were extracted by phenol methods from the above ground part of the plant. Northern hybridization was carried out using the cDNA of ^32P-labeled CIGR2 as a probe. […] This line was analyzed using a 60mer oligoarray (Agilent) constructed from a total-length rice cDNA library. As a result, induction of three genes (PR1(AK107926), PR10, and OsDRF1 (Defense Response Gene Family 1; AK100816)) was discovered 48-72 hours after dexamethasone treatment. PR1 and PR10 are known to be involved in disease resistance. […]

CIGR2 gene = test: DEX-induced CIGR2 expression in transformed rice carrying a dexamethasone-responsive promoter (pTA7001), Northern hybridization; assay type: in vivo, rice (Nipponbare); settings: transformed line #7; DEX 30 μM spray; twelve hours after treatment

Q: How did the “induction of PR1, PR10 and OsDRF1 after DEX treatment” value [1] turn out when `C[C@@H]1C[C@H]2[C@@H]3CCC4=CC(=O)C=C[C@]4(C)[C@@]3(F)[C@@H](O)C[C@]2(C)[C@@]1(O)C(=O)CO` [dexamethasone] was run?
A: not observed

Q: And the “CIGR2 gene expression after dexamethasone treatment” value (CIGR2 gene)?
A: strongly induced

Source: patent US20050034189A1, “Chitin oligosaccharide elicitor- and gibberellin-responsive genes in plants, and uses thereof” (National Institute of Agrobiological Sciences, priority 2001, published 2005)
